# In publication PMC6925144, “A prospective compound screening contest identified broader inhibitors for Sirtuin 1” (Scientific Reports, 2019):
# The chains behind the UniProt entries cited, without tags or fusion partners. Residues count along the entry.
# UniProt Q96EB6, 2-747 limits assumed: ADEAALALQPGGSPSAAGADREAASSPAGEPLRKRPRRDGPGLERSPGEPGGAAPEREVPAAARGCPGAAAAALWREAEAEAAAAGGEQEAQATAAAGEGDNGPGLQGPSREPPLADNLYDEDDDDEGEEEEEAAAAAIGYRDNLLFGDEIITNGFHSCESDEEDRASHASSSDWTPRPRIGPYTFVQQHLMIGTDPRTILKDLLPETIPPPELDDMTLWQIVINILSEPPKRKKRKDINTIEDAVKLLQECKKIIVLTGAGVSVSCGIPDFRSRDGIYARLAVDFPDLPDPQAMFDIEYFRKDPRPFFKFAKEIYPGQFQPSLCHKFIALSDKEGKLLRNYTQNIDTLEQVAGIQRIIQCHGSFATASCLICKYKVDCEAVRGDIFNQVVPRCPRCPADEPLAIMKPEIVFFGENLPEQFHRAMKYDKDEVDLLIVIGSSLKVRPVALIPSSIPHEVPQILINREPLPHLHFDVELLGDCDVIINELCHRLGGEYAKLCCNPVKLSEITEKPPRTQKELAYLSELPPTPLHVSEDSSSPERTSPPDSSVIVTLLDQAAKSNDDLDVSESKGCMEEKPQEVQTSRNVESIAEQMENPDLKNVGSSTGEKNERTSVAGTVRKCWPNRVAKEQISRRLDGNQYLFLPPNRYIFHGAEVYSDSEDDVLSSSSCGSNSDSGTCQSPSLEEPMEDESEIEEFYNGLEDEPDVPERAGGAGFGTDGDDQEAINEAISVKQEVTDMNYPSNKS
# In all, about 3,200 compounds were measured (“TSA(without NAD+) / Primary screening (TSA) / delta Tm (K)”: median about -0.07, highest 2% from about 0.37 on). This is one part of the list.
# Molecular target: NAD-dependent deacetylase Sirtuin 1 (human, UniProt Q96EB6)
# Test: primary screen, delta tm
# Parameters: single well (n = 1)
# Details: 10 µM
# Description: A total of 3,192 compounds extracted from the proposed lists were first screened by thermal shift assay (TSA), which determined a melting temperature shift (ΔTm) of Sirtuin 1 upon the addition of a test compound at a concentration of 10 µM (n = 1) with primary hit criteria of ΔTm > 0.45 K or ΔTm < −1.5 K. Primary hits (48 compounds) were retested in the same assay at three concentrations (5, 10, 20 µM, n = 4) for hit confirmation and for dose-dependency check. Secondary hits (41 compounds) were checked their selectivity for Sirtuin 1 based on counterscreening on unrelated protein targets (bovine carbonic anhydrase (CA) and recombinant SH2 domain of hABL1 kinase (ABL1)) at three different concentrations (5, 10, 20 µM, n = 4), which yielded 38 hit compounds, hereafter referred to as TSA hits. The TSA screening above was conducted in the absence of NAD+.
row,Compound,TSA(without NAD+) / Primary screening (TSA) / delta Tm (K)
1,O=C(Cc1csc(-c2ccco2)n1)N(C/C=C/c1ccccc1)c1ccc2c(c1)OCCO2,-0.12 K
2,Cc1nc2cc(C(=O)O)ccc2[nH]1,-0.07 K
3,CN(c1cccc(Cl)c1)S(=O)(=O)c1cccc(C(=O)N2CCc3[nH]c4ccccc4c3C2)c1,-0.03 K
4,O=[N+]([O-])c1ccc(CSc2nc3ccccc3c3nc(CCc4c[nH]c5ccccc45)nn23)cc1,0.36 K
5,COc1ccc(S(=O)(=O)N2CCc3ccccc32)cc1C(=O)NCC12CC3CC(CC(C3)C1)C2,0.22 K
6,CC(CS(C)=O)C(=O)O (stereo not shown),-0.22 K
7,NC(=O)CC1CCN(c2ncnc3cc(Cl)ccc23)CC1,-0.05 K
8,COC(=O)CC(C)(NC(=O)Nc1ccc(SC(C)(C)C)cc1C)c1ccncc1 (stereo not shown),-0.07 K
9,O=C(O)CC(O)C(=O)O (stereo not shown),-0.12 K
10,O=C(NCc1ccccc1O)c1ccc2c(c1)C(=O)c1ccccc1-2,0.16 K
11,O=C(NC(Cc1ccccc1)C(=O)N1CCCCCCC1)c1ccccc1 (stereo not shown),-0.11 K
12,C=CCOc1ccc(/C=C/C(=O)NC(Cc2ccccc2)c2nc3ccccc3[nH]2)cc1 (stereo not shown),-0.02 K
13,O=C(O)c1cccc(C(=O)O)n1,0.02 K
14,O=C(CSc1nnc(NCc2ccco2)s1)N(c1ccccc1)C1CCS(=O)(=O)C1 (stereo not shown),-0.17 K
15,CNc1ncc(C(F)(F)F)cc1Cl,-0.28 K
16,CCC(O)(CC)CN,-0.18 K
17,CC(C)COc1ccc(C(=O)C2=C(O)C(=O)N(CCN3CCOCC3)C2c2ccc(F)cc2)cc1 (stereo not shown),0.06 K
18,CCC(C)N (stereo not shown),0.35 K
19,Cc1ccc(C2(c3ccc(C)cc3)NC(=O)N(CC(=O)NC34CC5CC(CC(C5)C3)C4)C2=O)cc1,-0.01 K
20,CN(c1ccccc1)S(=O)(=O)c1cccc(C(=O)Nc2sccc2C(N)=O)c1,0.38 K
21,CONC(=O)c1c(-c2ccccc2)n(C)c2ccccc12,-0.24 K
22,Cc1nc(-c2ccc(NC(=O)[C@H](C)NC(=O)OCc3ccccc3)cc2)cs1,0.02 K
23,NCCc1nc2cc(C(=O)O)ccc2[nH]1,-0.23 K
24,CNC(=O)c1c(-c2ccccc2)n(C)c2ccccc12,0.02 K
25,CCOc1ccc(C2C(C(=O)c3ccco3)=C(O)C(=O)N2CCCN2CCOCC2)cc1OC (stereo not shown),-0.12 K

row,Compound,TSA(without NAD+) / Primary screening (TSA) / delta Tm (K)
1,CC1CCCCC1NC(=O)CN1C(=O)NC2(CCc3ccccc3C2)C1=O (stereo not shown),-0.23 K
2,O=C(Nc1cccc2ccccc12)N1CC=C(c2ccccc2)CC1,-0.03 K
3,O=S1(=O)CC(O)C(N2CCN(c3ncnc4c3oc3ccccc34)CC2)C1 (stereo not shown),-0.08 K
4,CCOc1ccc(NC(=O)COc2ccc(C(=O)NC34CC5CC(CC(C5)C3)C4)cc2OC)cc1,-0.12 K
5,COc1cccc(C(=O)C2=C(O)C(=O)N(CCCN3CCOCC3)C2c2cccc([N+](=O)[O-])c2)c1 (stereo not shown),-0.08 K
6,Cc1cnc(N2CCC(Oc3ccnc(C(N)=O)c3)CC2)s1,-0.32 K
7,Cc1ccc(-c2csc(NC(=O)c3ccnc4c(C(N)=O)cnn34)n2)c(C)c1,-0.05 K
8,COc1cccc2cc(C(=O)C3=C(O)C(=O)N(CCN4CCOCC4)C3c3ccc(C)cc3)oc12 (stereo not shown),0.06 K
9,Cc1ccccc1CC(=O)Nc1ccc(N2CCN(Cc3ccccc3)CC2)cc1,0.15 K
10,COc1ccc(C(N)=O)cc1NC(=O)c1nn(-c2ccc(C)c(F)c2)c2c1CCCC2,-0.02 K
11,Cc1nc2ccccc2c2c(NC(=O)c3cnccn3)c3ccccc3n12,-0.04 K
12,COc1ccc2cc(CNc3ncnc4[nH]ncc34)ccc2c1,-0.08 K
13,CC(C)(CNc1ncnc2ccsc12)C(N)=O,-0.02 K
14,COc1ccc(C(=O)OC(C)C(N)=O)cc1F (stereo not shown),0.03 K
15,CNS(=O)(=O)c1ccc(CCC(=O)Nc2ccccc2Cc2ccccc2)cc1,-0.04 K
16,CC(=O)N1N=C(c2ccc(O)cc2)CC1c1ccccc1 (stereo not shown),0.07 K
17,NS(=O)(=O)c1ccc(C(=O)Nc2ccc3c(c2)-c2ccccc2C3)cc1,0.23 K
18,Cc1cccc(NC(=O)CN2CCN(CC3CCCCC3)CC2)c1C,-0.15 K
19,CN(C(=O)CCN/C(O)=C1/N=CC=CC1=O)c1ccc2ccccc2c1,-0.08 K
20,Cc1c(C(=O)O)cnc2nc3ccccc3n12,-0.18 K
21,Cc1ccc([N+](=O)[O-])c(Oc2nc(CN3CCOCC3)nc3scc(-c4cccs4)c23)c1,-0.24 K
22,CCN(CC(=O)NCc1ccc(F)cc1)Cc1ccc(C(=O)Nc2ccccc2)cc1,-0.17 K
23,O=c1[nH]cnc2c1cnn2-c1ccncc1,0.06 K
24,Cc1ccc2[nH]c3c(c2c1)CNCC3,-0.32 K
25,O=C(Cn1cnc2sccc2c1=O)Nc1ccccc1Oc1ccccc1,-0.13 K

# Looked up above.
# Cc1nc2ccccc2c2c(NC(=O)c3cnccn3)c3ccccc3n12 | TSA(without NAD+) / Primary screening (TSA) / delta Tm (K): -0.04 K
# COc1cccc2cc(C(=O)C3=C(O)C(=O)N(CCN4CCOCC4)C3c3ccc(C)cc3)oc12 (stereo not shown) | TSA(without NAD+) / Primary screening (TSA) / delta Tm (K): 0.06 K

# (cont.)

row,Compound,TSA(without NAD+) / Primary screening (TSA) / delta Tm (K)
1,Cc1csc2c(N3CCN4CCC3CC4)ncnc12,-0.18 K
2,O=C1c2ccccc2C(=O)N1Cc1cc(=O)n2ccccc2n1,0.07 K
3,Cc1cc(N2CCN(CC(=O)Nc3sc4c(c3C(N)=O)CCCC4)CC2)nc(C(C)C)n1,-0.03 K
4,CCC(O)CN(C)Cc1ccc2ccccc2c1 (stereo not shown),0.06 K
5,CCN(C(=O)CSc1nnc(-c2sc3ccccc3c2Cl)o1)C1CCS(=O)(=O)C1 (stereo not shown),-0.04 K
6,O=C(Cc1c[nH]c2ccccc12)N1CCc2[nH]c3ccccc3c2C1,-0.14 K
7,Cc1ccc2c(n1)nn1c(O)cc(C)nc21,-0.12 K
8,COc1cccc(CN(C(=O)COC(=O)c2ccc(NC(C)=O)cc2)C23CC4CC(CC(C4)C2)C3)c1,-0.33 K
9,O=C(COC(=O)C1(c2ccc(Cl)cc2)CCCC1)Nc1cc(S(=O)(=O)N2CCOCC2)ccc1N1CCCC1,-0.02 K
10,O=C(NCC(O)c1ccccc1)c1ccc2c(=O)[nH]c(S)nc2c1 (stereo not shown),-0.13 K
11,CCC(NC(=O)C1=COCCC1)C1CN(Cc2ccccc2)CCO1 (stereo not shown),-0.04 K
12,COCCCNCc1ccccc1,-0.13 K
13,Cc1nc(N2CCN(Cc3nc(-c4ccccc4)no3)CC2)c2c3c(sc2n1)CC(C)CC3 (stereo not shown),-0.08 K
14,CCc1ncnc(N2CCCC(c3cc(C(N)=O)[nH]n3)C2)c1F (stereo not shown),-0.02 K
15,CN(C)C(CNC(=O)c1ccc2c(c1)OCCCO2)c1ccco1 (stereo not shown),-0.03 K
16,CN(c1ccc2ccccc2n1)S(=O)(=O)c1cc(C(N)=O)n(C)c1,-0.01 K
17,CC(SCC(O)CO)c1nc2ccccc2c(=O)[nH]1 (stereo not shown),-0.12 K
18,CC1CC1c1ccc(/C=C/C(=O)Nc2cc(C(N)=O)ccc2N2CCCC2)o1 (stereo not shown),-0.17 K
19,O=C(O)c1ccc2[nH]c(C(F)(F)F)nc2c1,-0.01 K
20,C=CCN(C(=O)CCCc1nc(C(C)(C)C)no1)c1nc2c(s1)CCCC2,-0.47 K
21,c1ccc2c(c1)NCC1CCCN21 (stereo not shown),-0.21 K
22,CCc1cc2c(N3CCC(C(=O)Nc4cc(C)on4)CC3)ncnc2s1,-0.08 K
23,CCCCn1c(=O)c2c(nc3n(CCCC)c(C)cn23)n(C)c1=O,-0.02 K
24,CN(c1ccccc1)S(=O)(=O)c1cccc(NC(=O)c2ccc(C(N)=O)cc2)c1,0.02 K
25,CC(C)(C)c1ccc(OCCCC(=O)Nc2cccc(S(=O)(=O)N3CCOCC3)c2)cc1,0.28 K

row,Compound,TSA(without NAD+) / Primary screening (TSA) / delta Tm (K)
1,NC(=O)c1cnc(N2CCC(N3CCNC3=O)CC2)c(Cl)c1,0.02 K
2,CCc1ccc(-c2noc(COc3ccc(-c4nnco4)cc3)n2)cc1,-0.15 K
3,CNS(=O)(=O)c1cc(N)ccc1C,-0.02 K
4,O=C(CN1CCCCCC1=O)N1CCN(c2cnccn2)CC1,-0.01 K
5,CN(c1ccc(Oc2ncnc3ccccc23)cc1)S(=O)(=O)c1ccc2ccccc2c1,-0.17 K
6,CCc1c(C)c(C#N)c2nc3ccccc3n2c1S,0.39 K
7,COC[C@@H](C)N,0.02 K
8,Cc1c(C(=O)N2c3ccccc3NC(=O)C2(C)C)oc2ccc(Br)cc12,-0.38 K
9,c1ccc(-c2[nH]c3c(ccc4ccccc43)c2-c2ccccc2)cc1,0.52 K
10,O=C(CN1CCN(c2nc(-c3ccccc3)nc3ccccc23)CC1)Nc1nncs1,-0.28 K
11,CC1CCC(NN)CC1 (stereo not shown),-0.08 K
12,COc1cc(CN(C)C(=O)CN2C(=O)NC3(CCc4ccccc43)C2=O)ccc1OCc1ccccc1 (stereo not shown),-0.17 K
13,O=C(NCCc1c[nH]c2ccccc12)C1=COCCO1,-0.14 K
14,COC(=O)CCN,-0.17 K
15,O=C(c1cc2c(s1)CCCC2)N(Cc1ccccc1)c1ccccc1,-0.08 K
16,CCC(CN)OC (stereo not shown),-0.28 K
17,CSc1nc(-c2ccccc2)c[nH]1,-0.13 K
18,O=c1[nH]nc(-c2ccc(F)cc2)o1,-0.01 K
19,O=C(/C=C/c1ccco1)C1=C(O)C(=O)N(CCN2CCOCC2)C1c1ccncc1 (stereo not shown),-0.02 K
20,CC1(C)CC(=O)C(=CNNC(=O)CC23CC4CC(CC(C4)C2)C3)C(=O)C1,-0.02 K
21,Cc1cc(CNC(=O)Cc2sc(S)nc2C)on1,-0.11 K
22,Cc1cccc(-c2nc3ccccc3n3c(C)nnc23)c1,-0.14 K

# Of the compounds above, 3 have a tert-butyl group.
row,Compound,TSA(without NAD+) / Primary screening (TSA) / delta Tm (K)
8,COC(=O)CC(C)(NC(=O)Nc1ccc(SC(C)(C)C)cc1C)c1ccncc1 (stereo not shown),-0.07 K
20,C=CCN(C(=O)CCCc1nc(C(C)(C)C)no1)c1nc2c(s1)CCCC2,-0.47 K
25,CC(C)(C)c1ccc(OCCCC(=O)Nc2cccc(S(=O)(=O)N3CCOCC3)c2)cc1,0.28 K
